Reference: US20090269281A1, “Calcium/Calmodulin-Dependent Protein Kinase Kinase as a Control Point for Cardiac Hypertrophy” (University of North Texas Health Science Center at Fort …, priority 2007, published 2009)
Results are given in words; binding and its absence hold for the method and conditions named. For some of these results: In cells and extracts the contact can be indirect. Some results given as binding are weak or reduced against the parent protein; the word gives no strength.

By UniProt entry, the sequences of proteins in these tests, tags left out. Where a name states a change or a piece, a line headed by the entry shows the natural chain unless it says otherwise. Chains listed by the source or under a name are the forms on record and can include a tag or linker.
histone deacetylase 5 (HDAC5) (A0A8I6G4R8, form named): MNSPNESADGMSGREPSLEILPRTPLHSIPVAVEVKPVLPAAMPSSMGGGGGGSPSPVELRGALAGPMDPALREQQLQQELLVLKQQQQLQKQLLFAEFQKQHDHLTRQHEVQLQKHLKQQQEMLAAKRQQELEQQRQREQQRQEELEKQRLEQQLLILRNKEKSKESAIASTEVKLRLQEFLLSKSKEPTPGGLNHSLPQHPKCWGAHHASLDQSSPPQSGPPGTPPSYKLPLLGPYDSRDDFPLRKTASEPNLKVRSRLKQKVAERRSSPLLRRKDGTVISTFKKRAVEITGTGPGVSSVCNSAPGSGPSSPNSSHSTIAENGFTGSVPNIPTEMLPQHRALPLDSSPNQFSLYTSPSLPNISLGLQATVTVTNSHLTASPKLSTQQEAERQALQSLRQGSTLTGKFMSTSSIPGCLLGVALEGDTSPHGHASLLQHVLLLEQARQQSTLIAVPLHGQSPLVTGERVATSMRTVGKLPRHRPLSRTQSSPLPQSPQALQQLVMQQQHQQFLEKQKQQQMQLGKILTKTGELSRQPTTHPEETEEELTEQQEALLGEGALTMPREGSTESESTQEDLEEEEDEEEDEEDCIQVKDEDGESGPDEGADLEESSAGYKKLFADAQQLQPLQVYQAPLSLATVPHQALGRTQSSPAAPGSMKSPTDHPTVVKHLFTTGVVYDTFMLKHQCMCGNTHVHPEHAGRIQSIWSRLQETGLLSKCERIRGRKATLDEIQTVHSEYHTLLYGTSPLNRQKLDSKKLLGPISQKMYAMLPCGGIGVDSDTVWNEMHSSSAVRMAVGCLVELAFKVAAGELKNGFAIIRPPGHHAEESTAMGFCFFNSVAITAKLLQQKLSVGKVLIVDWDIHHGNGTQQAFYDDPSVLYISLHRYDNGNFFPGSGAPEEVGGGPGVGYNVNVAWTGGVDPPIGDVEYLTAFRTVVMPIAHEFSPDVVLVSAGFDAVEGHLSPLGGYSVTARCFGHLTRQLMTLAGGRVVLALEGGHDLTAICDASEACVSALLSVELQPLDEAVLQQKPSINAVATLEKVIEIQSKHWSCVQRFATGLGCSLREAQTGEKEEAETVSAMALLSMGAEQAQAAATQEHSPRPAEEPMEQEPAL

Tests used:
14-3-3β (rat) [1] = target: T1, 14-3-3β (rat) (UniProt P35213); assay: immunoprecipitation of 14-3-3β after STO-609, SB203580 or U0126 pretreatment and UII, HDAC5 western blot
T1 sequence (looked up): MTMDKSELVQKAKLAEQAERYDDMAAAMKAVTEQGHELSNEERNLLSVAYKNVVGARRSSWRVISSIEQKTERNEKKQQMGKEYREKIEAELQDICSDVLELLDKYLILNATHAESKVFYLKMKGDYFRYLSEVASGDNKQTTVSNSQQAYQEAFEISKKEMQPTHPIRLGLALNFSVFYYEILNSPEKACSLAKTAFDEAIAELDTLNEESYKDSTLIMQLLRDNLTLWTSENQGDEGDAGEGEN

14-3-3β (rat) [2] = target: T1, 14-3-3β (rat); assay: immunoprecipitation of 14-3-3β from whole cell lysates, western blot for coimmunoprecipitated HDAC5
14-3-3β (rat) [3] = target: T1, 14-3-3β (rat); assay: co-immunoprecipitation from cardiomyocyte lysates, western blot
14-3-3β (rat) [4] = target: T1, 14-3-3β (rat); assay: pull-down of 14-3-3β with specific antibody and protein G agarose from AdUIIR-infected cardiomyocyte lysates, HDAC5 western blot

- binding (14-3-3β (rat) [1]): binds
- binding (14-3-3β (rat) [2]): binds
- binding (14-3-3β (rat) [3]): binds
- binding (14-3-3β (rat) [4]): binds
Substance: histone deacetylase 5 (HDAC5) (from UniProt A0A8I6G4R8 1-1114) (enzyme)
